# Experimental data taken from patent publication US20080175800A1, “USE OF SPECIFIC MENTHYL 3-OXOCARBOXYLIC ACID ESTERS AS PHYSIOLOGICALLY ACTIVE COOLING SUBSTANCES” (SYMRISE GmbH & Co. KG, priority 2007, published 2008).
# Assay: Sensory evaluation in confectioner's fondant by a panel of experts (cooling action)
# Type: in vivo
# Settings: 0.05 wt. % in confectioner's fondant
# Method: The compounds from Examples 1 and 2 were tested for their sensory properties, in particular their cooling action. To this end, they were dissolved, in each case in a specific final concentration, in a mass prepared from sucrose (saccharose) and water (confectioner's fondant, supplier Nordzucker AG, Nordstemmen) and evaluated by a panel of experts. Sensory impressions were rated and the cooling action was assessed on a scale from 1 (no cooling action) to 9 (extremely strong cooling action).
SMILES,bitterness,sensory impression (flavor note)
"CC(=O)CC(=O)O[C@@H]1C[C@H](C)CC[C@H]1C(C)C [Example 1, (L)-menthyl 3-oxo-butyrate]",not bitter,slightly flowery
"CCC(=O)CC(=O)O[C@@H]1C[C@H](C)CC[C@H]1C(C)C [Example 2, (L)-menthyl 3-oxo-pentanoate]",not bitter,
